PubChem BioAssay AID1259254, NCATS, 2017
This is a random part of about 59,000 reagents tested. About 1,550 of them (2.6%) count as active. 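G2 share is only a proxy for re-replication; each gene was hit by three separate siRNAs, and active genes were retested.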 Entries without a mark were called inactive. The numbers tell different reagents against one gene apart. Further read-outs or replicates are left out here. The record does not give: the amount of reagent.

Assay: 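Genome-wide screen for genes that prevent DNA re-replication in cancer cells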 (primary screen)
Cells: human HCT116 colorectal cancer cells
Reagent: single siRNA against human genes
Duration: 3 days
Measured: 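Nuclei stained with Hoechst and imaged; cell-cycle phase assigned by DNA content; G2 share scaled per plate, non-targeting siRNA 0%, GMNN siRNA 100%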
Direction: G2 robust z-score: higher = more G2 cells, more excess DNA replication
Rule for the call: 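An siRNA counts as active if its G2 robust z-score lies at least 5 MADs above the screen median; here such calls match roughly 38% of GMNN control or more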

{"gene": "PTGFRN (prostaglandin F2 receptor inhibitor)", "siRNA no.": 1, "G2 robust z-score": -0.851}
{"gene": "PTGFRN (prostaglandin F2 receptor inhibitor)", "siRNA no.": 2, "G2 robust z-score": 0.175}
{"gene": "PTGFRN (prostaglandin F2 receptor inhibitor)", "siRNA no.": 3, "G2 robust z-score": 2.46}
{"gene": "ATRAID (all-trans retinoic acid induced differentiation factor)", "siRNA no.": 1, "G2 robust z-score": 0.324}
{"gene": "ATRAID (all-trans retinoic acid induced differentiation factor)", "siRNA no.": 2, "G2 robust z-score": 1.23}
{"gene": "ATRAID (all-trans retinoic acid induced differentiation factor)", "siRNA no.": 3, "G2 robust z-score": 0.945}
{"gene": "UMPS (uridine monophosphate synthetase)", "siRNA no.": 1, "G2 robust z-score": 1.44}
{"gene": "UMPS (uridine monophosphate synthetase)", "siRNA no.": 2, "G2 robust z-score": -0.775}
{"gene": "UMPS (uridine monophosphate synthetase)", "siRNA no.": 3, "G2 robust z-score": -0.903}
{"gene": "FAIM (Fas apoptotic inhibitory molecule)", "siRNA no.": 1, "G2 robust z-score": 1.34}
{"gene": "FAIM (Fas apoptotic inhibitory molecule)", "siRNA no.": 2, "G2 robust z-score": 1.05}
{"gene": "FAIM (Fas apoptotic inhibitory molecule)", "siRNA no.": 3, "G2 robust z-score": 1.23}

The list goes on, starting with the last 2 of the part before.
{"gene": "FAIM (Fas apoptotic inhibitory molecule)", "siRNA no.": 2, "G2 robust z-score": 1.05}
{"gene": "FAIM (Fas apoptotic inhibitory molecule)", "siRNA no.": 3, "G2 robust z-score": 1.23}
{"gene": "RAPGEF4 (Rap guanine nucleotide exchange factor 4)", "siRNA no.": 1, "G2 robust z-score": 1.58}
{"gene": "RAPGEF4 (Rap guanine nucleotide exchange factor 4)", "siRNA no.": 2, "G2 robust z-score": -0.716}
{"gene": "RAPGEF4 (Rap guanine nucleotide exchange factor 4)", "siRNA no.": 3, "G2 robust z-score": -0.478}
{"gene": "FIBCD1 (fibrinogen C domain containing 1)", "siRNA no.": 1, "G2 robust z-score": -0.61}
{"gene": "FIBCD1 (fibrinogen C domain containing 1)", "siRNA no.": 2, "G2 robust z-score": 0.376}
{"gene": "FIBCD1 (fibrinogen C domain containing 1)", "siRNA no.": 3, "G2 robust z-score": 0.717}
{"gene": "RBM11 (RNA binding motif protein 11)", "siRNA no.": 1, "G2 robust z-score": 0.311}
{"gene": "RBM11 (RNA binding motif protein 11)", "siRNA no.": 2, "G2 robust z-score": 4.64}
{"gene": "RBM11 (RNA binding motif protein 11)", "siRNA no.": 3, "G2 robust z-score": 0.355}
{"gene": "KRT18P8 (keratin 18 pseudogene 8)", "siRNA no.": 1, "G2 robust z-score": -0.612}
{"gene": "KRT18P8 (keratin 18 pseudogene 8)", "siRNA no.": 2, "G2 robust z-score": -0.176}
{"gene": "KRT18P8 (keratin 18 pseudogene 8)", "siRNA no.": 3, "G2 robust z-score": "5.02 (active)"}
